This assay has as its target HSPA8 Heat shock cognate 71 kDa protein (Heat shock 70 kDa protein 8), endogenous (human (endogenous in HEK293)) (UniProt P11142). In words: co-IP; endogenous HSPA8 immunoprecipitated with anti-HSPA8 antibody on Sepharose Protein A beads from mitochondrial isolates of HEK293 cells (expressing FLAG.OMI.S306C by the legend); IEF/2D separation and immunoblot. On the technique in general: A western blot detects proteins with antibodies after separation by electrophoresis.

Amino acid sequences for entries named in this document (tags omitted).
UniProt P11142: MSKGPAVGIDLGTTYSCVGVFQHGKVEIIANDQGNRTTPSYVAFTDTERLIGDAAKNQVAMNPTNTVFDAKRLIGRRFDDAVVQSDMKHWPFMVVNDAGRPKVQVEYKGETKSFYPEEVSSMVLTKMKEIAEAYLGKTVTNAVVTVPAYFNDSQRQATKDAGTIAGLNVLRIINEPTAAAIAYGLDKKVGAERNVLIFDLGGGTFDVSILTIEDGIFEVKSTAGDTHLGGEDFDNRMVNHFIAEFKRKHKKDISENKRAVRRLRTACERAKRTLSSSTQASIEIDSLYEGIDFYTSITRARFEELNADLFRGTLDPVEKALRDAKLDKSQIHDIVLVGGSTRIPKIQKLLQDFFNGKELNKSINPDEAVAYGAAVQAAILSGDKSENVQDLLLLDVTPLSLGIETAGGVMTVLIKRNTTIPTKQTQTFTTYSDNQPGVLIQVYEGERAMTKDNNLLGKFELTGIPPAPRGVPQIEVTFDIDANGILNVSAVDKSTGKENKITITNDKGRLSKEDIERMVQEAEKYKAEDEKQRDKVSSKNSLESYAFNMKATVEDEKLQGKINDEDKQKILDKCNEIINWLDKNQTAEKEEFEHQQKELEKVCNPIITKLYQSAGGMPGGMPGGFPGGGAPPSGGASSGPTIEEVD

These are yes or no findings as the source states them, for the method shown. In cells and extracts the contact can be indirect. Some binding calls cover weakened binding; strength is not graded here.

B1: PDHB Pyruvate dehydrogenase E1 component beta subunit, mitochondrial, endogenous (protein, UniProt P11177 31-359)
chain: LQVTVRDAINQGMDEELERDEKVFLLGEEVAQYDGAYKVSRGLWKKYGDKRIIDTPISEMGFAGIAVGAAMAGLRPICEFMTFNFSMQAIDQVINSAAKTYYMSGGLQPVPIVFRGPNGASAGVAAQHSQCFAAWYGHCPGLKVVSPWNSEDAKGLIKSAIRDNNPVVVLENELMYGVPFEFPPEAQSKDFLIPIGKAKIERQGTHITVVSHSRPVGHCLEAAAVLSKEGVECEVINMRTIRPMDMETIEASVMKTNHLVTVEGGWPQFGVGAEICARIMEGPAFNFLDAPAVRVTGADVPMPYAKILEDNSIPQVKDIIFAIKKTLNI
B1: the binding entry is “binds”.

B2: IDH3A Isocitrate dehydrogenase [NAD] subunit alpha, mitochondrial, endogenous (protein, UniProt P50213 28-366)
chain: TGGVQTVTLIPGDGIGPEISAAVMKIFDAAKAPIQWEERNVTAIQGPGGKWMIPSEAKESMDKNKMGLKGPLKTPIAAGHPSMNLLLRKTFDLYANVRPCVSIEGYKTPYTDVNIVTIRENTEGEYSGIEHVIVDGVVQSIKLITEGASKRIAEFAFEYARNNHRSNVTAVHKANIMRMSDGLFLQKCREVAESCKDIKFNEMYLDTVCLNMVQDPSQFDVLVMPNLYGDILSDLCAGLIGGLGVTPSGNIGANGVAIFESVHGTAPDIAGKDMANPTALLLSAVMMLRHMGLFDHAARIEAACFATIKDGKSLTKDLGGNAKCSDFTEEICRRVKDLD
For the molecule B2, the binding entry was “binds”.

The record behind these values is PMC2740829.
